Results on 41 compounds are retold here after PubChem BioAssay AID445 (National Center for Advancing Translational Sciences (NCATS), 2006).

A word on the AC50: it is the concentration at which the activity in the assay is half-maximal.

Some of the results follow. Shown are side measurements of this screen, not its main read-out; they come without a call. The list favours compounds with an active or inconclusive main result. Potencies come from curve fits of mixed quality, noted in brackets.

This test is described as follows: IkB Signaling. Conditions: ABC-DLBCL IkBa-CBG/CBR dual luciferase ratio (green luciferase fused to IkBa over red control in OCI-Ly3 lymphoma cells), 4 h; measured here: control luc red channel unless noted. The procedure, abridged: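 Luminescence ratio of IκBα-fused green versus native red beetle luciferase in OCI-Ly3 cells, 4 h post-doxycycline with compound; red signal alone, scaled from basal (0%) to zero light (-100%), flagged nonspecific or cytotoxic effects.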
`O=C(Nc1ccccn1)c1ccc2ccccc2n1`: the concentration at half-maximal activity (AC50) was 15.8 µM [falling, partial curve].

As for `Cc1cc(C)cc(NC(=O)c2nnn(Cc3cc(C)ccc3C)c2N)c1`, the AC50 is 12.6 µM [falling, partial curve].

Turning to `COc1ccc(N2CCN(c3cc(C)nc4nc(-c5ccc(C)cc5)nn34)CC2)cc1`, the AC50 was 39.8 µM [rising, single point] [measured here: IkB-luc green channel].

For `COc1ccccc1-c1noc(-c2ccc(N3CCN(c4ccccc4)CC3)c([N+](=O)[O-])c2)n1`, the AC50 is 20 µM [falling, single point].

As to `Cc1ccc(Cl)cc1NC(=O)N1CCN(C)c2ncccc21`, the AC50 is 7.94 µM [rising, single point].

As for `Cc1cccc(C(=O)N2CCc3cc(CNC(=O)CCc4ccccc4)ccc32)c1`, the AC50 was 12.6 µM [falling, partial curve].

Consider `Cc1cc(C)cc(NC(=O)CSc2nccn2-c2ccccc2)c1`, for which the AC50 is 39.8 µM [falling, single point].

For the compound `Cc1cccc2nc(-c3cccnc3)c(Nc3ccc(C(C)C)cc3)n12`, the AC50 is 10 µM [falling, partial curve].

`COc1ccc2c(c1)-c1nc(NC(=O)c3ccco3)sc1CC2`: the AC50 is 31.6 µM [falling, single point].

On to `Cc1ccc(-c2cc(N)n3nc(-c4ccc(C)cc4)cc3n2)cc1`, for which the AC50 was 20 µM [falling, partial curve].

Take `O=C(Cn1cc(SCc2ccc(C(F)(F)F)cc2)c2ccccc21)N1CCCCC1`: the AC50 is 15.8 µM [falling, partial curve].

Regarding `Cc1cccc(Nc2nnc(-n3nc(C)cc3C)c3ccccc23)c1`, the AC50 was 2 µM [rising, partial curve].

As for `COc1ccc2c(CNCc3ccc(Cl)cc3)c(C(=O)O)n(Cc3ccccc3C)c2c1`, the AC50 was 10 µM [falling, partial curve, poor fit].

Turning to `O=C(c1ccco1)N1CCN(c2nc3ccccc3n3nnnc23)CC1`, the AC50 was 0.251 µM [falling, full curve].

In the case of `Cc1ccc2c(c1)nnn2C1CCN(S(=O)(=O)c2ccc(C(=O)N(C)C3CCCCC3)cc2)CC1`, the AC50 is 12.6 µM [falling, partial curve].

For the compound `COc1ccc(NC(=O)c2cnn(-c3ccc(C)cc3)c2-n2cccc2)cc1Cl`, the AC50 was 5.01 µM [falling, full curve].

As to `O=C(Cn1c(=O)oc2ccccc21)NCc1cccc(Cl)c1`, the AC50 is 0.251 µM [rising, full curve].

For `COc1ccc(Cl)cc1NC(=O)Cn1c2ncccc2c(=O)n1-c1ccc(C)c(C)c1`, the AC50 is 0.0794 µM [rising, full curve, poor fit].

Turning to `Cc1ccc(-n2nc3c(=O)n(CC(=O)Nc4ccccc4F)nc(C)c3c2C)c(C)c1`, the AC50 is 12.6 µM [falling, partial curve].

Take `Cc1cc(NS(=O)(=O)c2ccc(NC(=O)COc3ccc(Cl)cc3)cc2)nc(C)n1`: the AC50 is 12.6 µM [falling, partial curve].

Regarding `Cc1ccc(NC(=O)Nc2nnc(N(C)Cc3ccccc3)s2)cc1`, the AC50 was 20 µM [falling, single point].

As for `COc1ccc(S(=O)(=O)N2CCC(c3ccncc3)CC2)cc1Cl`, the AC50 is 25.1 µM [falling, single point].

Turning to `CN(C(=O)c1cc(-c2ccccc2O)on1)c1ccccc1`, the AC50 is 0.01 µM [falling, full curve].

Regarding `CCCCOc1c(Cl)cc(C(=O)N(Cc2ccc(C)o2)C2CCS(=O)(=O)C2)cc1Cl` (stereo unspecified), the AC50 is 15.8 µM [falling, partial curve].

Take `Cc1ccc(NS(=O)(=O)c2cccc(C(=O)OCC(=O)NCc3ccco3)c2)cc1`: the AC50 is 25.1 µM [falling, partial curve].

For `CSc1ccc(CCNc2ncnc3onc(C)c23)cc1`, the AC50 is 25.1 µM [falling, single point].

Regarding `COc1ccc(NC(=O)c2ccc(-c3ccc(-c4noc(C)n4)cc3C)cc2)cc1OCCN(C)C`, the AC50 is 39.8 µM [falling, single point].

With `COc1ccc(C(CNC(=O)COc2ccc(C)cc2)N2CCCCC2)cc1` (stereo unspecified), the AC50 is 39.8 µM [falling, single point].

Turning to `COc1ccccc1NC(=O)c1c(NCc2sccc2C)sc2c1CCCCC2`, the AC50 was 10 µM [falling, partial curve].

As for `CN(C(=O)Cn1c(=O)n(CCCS(=O)(=O)C2CCCCC2)c(=O)c2ccccc21)c1ccccc1`, the AC50 was 39.8 µM [falling, single point].

Regarding `COc1ccccc1-c1nc(S(=O)(=O)c2ccc(Cl)cc2)c(N2CCCCCC2)o1`, the AC50 was 5.01 µM [falling, partial curve, poor fit].

`CCOc1cc(C2C(C(=O)OC)=C(C)NC3=C2C(=O)c2ccccc23)ccc1O` (stereo unspecified): the AC50 is 25.1 µM [falling, single point].

Turning to `CCc1ccc(-c2nn(CC(=O)NC3CCCC3)c3c2cnc2ccc(C)cc23)cc1`, the AC50 is 6.31 µM [rising, single point].

Consider `Cc1cccc(/C=C/c2onc(C)c2S(=O)(=O)N2CCC(C(=O)N3CCC(C)CC3)CC2)c1`, for which the AC50 is 6.31 µM [rising, partial curve, poor fit].

Take `Cc1cccc(C)c1OCC(=O)NCC1(N2CCOCC2)CCCCC1`: the AC50 was 15.8 µM [falling, single point].

In the case of `COc1ccc(OC(=O)c2nc(SCc3ccc(C)cc3)ncc2Cl)cc1`, the AC50 is 0.0794 µM [rising, full curve].

On to `CC1CCCN(c2csc3ccc(F)cc3c2=O)C1` (stereo unspecified), for which the AC50 is 10 µM [falling, partial curve].

Regarding `CC1=Nc2ccccc2N=C(NC(=O)CSc2nnnn2-c2ccccc2)C1c1ccccc1` (stereo unspecified), the AC50 was 15.8 µM [falling, partial curve].

In the case of `CCCOc1ccc(C(=O)Nc2cccc(-c3nc4ccccc4[nH]3)c2)cc1`, the AC50 was 12.6 µM [falling, partial curve].

In the case of `Cc1ccc(-c2nc(C)c(CCNC(=O)C(=O)Nc3ccc4c(c3)OCCO4)s2)cc1`, the AC50 is 0.794 µM [rising, full curve].

In the case of `CC(C)C(=O)NC(c1ccco1)c1ccc2cccnc2c1O` (stereo unspecified), the half-maximal activity concentration (AC50) was 3.98 µM [falling, partial curve].
